Data on one molecule can be found in CN106699884A.

These are yes or no findings as the source states them, for the method shown. Some results given as binding are weak or reduced against the parent protein; the word gives no strength.

In the assay the target is T1, 人C-反应蛋白 (human C-reactive protein, extracted from human plasma, HyTest) (human) (UniProt P02741).
T1 sequence (looked up): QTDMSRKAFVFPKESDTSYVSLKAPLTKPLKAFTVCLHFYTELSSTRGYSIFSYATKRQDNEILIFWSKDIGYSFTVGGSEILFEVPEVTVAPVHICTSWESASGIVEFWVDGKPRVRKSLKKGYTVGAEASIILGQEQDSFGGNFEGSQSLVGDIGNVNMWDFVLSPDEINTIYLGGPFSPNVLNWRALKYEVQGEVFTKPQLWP
Put plainly: indirect ELISA, hybridoma supernatant on plate-coated CRP (1 ug/mL), HRP goat anti-mouse IgG, OD450. (In general: In an ELISA, binding on a coated surface is turned into a signal by an enzyme label.)

B1: 杂交瘤细胞株M20的抗体 (antibody of hybridoma cell line M20) (antibody, V domains shown)
VH: EVMLVESGGGLVKPGGSLKLSCAASGFTFSSYAMSWVRQTPERRLEWVATISTSGSDRYYPDSVKWRFTISRDSAKNILYLQMSSLRSEDTAMYYCARRGWDYWGQGTSVTVSA
VL: DVVMTQTPLSLPVSLGDQASISCRSSQSLVHSNGNTYLHWYLQKSGQSPKLLLYKVSNRFSGVSDRFSGSGSGTDFTLKISRVEAEDLGVYFCSQNTHVPPTFGGGTKLEIK
As for B1, the binding entry was “binds”.
